We go through 1 sequence from paper PMC4218819.

The exact form of at least one protein or probe is not confirmed.

This series deals with AraR Y5F (Bacillus subtilis) (UniProt P96711). Nature of the series: EMSA. The following applies: 12 mM HEPES-KOH pH 7.6, 10 mM MgCl2, 200 mM NaCl, 4 mM Na2HPO4, 4 mM NaH2PO4, 0.4 mM EDTA, 1 mM DTT, 0.5% BSA, 10% glycerol, 200-fold poly(dI-dC), 1 nM DNA; recombinant protein; label: 5'-32P; probe letters rebuilt from the primers and the genome.

Take “GATTGACAGTATAATAGTCAATTACTATAATAAAATTTTTCGTACAAATATTTATTTATAGGTTTATTTTCTATCATTAGTACGTATCTTTTGTATTTGAAAGCGTTTTATTTTATGAGAAAGGG (double strand) [ORA1 G5->T]”: the equilibrium dissociation constant (Kd) was more than 2000 nM.
